Measurements reported in paper PMC10121161.
Results are given in words; binding and its absence hold for the method and conditions named. Some results given as binding are weak or reduced against the parent protein; the word gives no strength. Where a sequence is shown, tags or fusion partners need not be part of it.

Chains of the proteins cited; added tags and fusions are not shown.
UniProt Q09065: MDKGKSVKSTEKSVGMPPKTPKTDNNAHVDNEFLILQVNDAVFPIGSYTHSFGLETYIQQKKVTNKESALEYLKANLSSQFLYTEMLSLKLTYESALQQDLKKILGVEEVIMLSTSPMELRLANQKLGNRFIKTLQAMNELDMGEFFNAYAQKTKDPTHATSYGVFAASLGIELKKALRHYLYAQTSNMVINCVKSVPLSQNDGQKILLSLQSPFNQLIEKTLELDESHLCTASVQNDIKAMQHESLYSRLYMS

Molecular target: HisGST-HpUreF (Helicobacter pylori) (UniProt Q09065)
Experiment: co-purification (Ni-chelating affinity chromatography); HisGST-HpUreF coexpressed with HpUreD (WT/variant) in E. coli; lysate loaded on HisTrap with 45 mM imidazole in 20 mM Hepes, 200 mM NaCl, 1 mM TCEP-HCl (pH 7.5); eluted with 300 mM imidazole

B1: HpUreD, untagged, from pHpUreH (protein, UniProt Q09067 1-265)
chain: MNTYAQESKLRLKTKIGADGRCVIEDNFFTPPFKLMAPFYPKDDLAEIMLLAVSPGMMRGDAQDVQLNIGPNCKLRITSQSFEKIHNTEDGFASRDMHIVVGENAFLDFAPFPLIPFENAHFKGNTTISLRSSSQLLYSEIIVAGRVARNELFKFNRLHTKISILQDEKPIYYDNTILDPKTTDLNNMCMFDGYTHYLNLVLVNCPIELSGVRECIEESEGVDGAVSETASSHLCVKALAKGSEPLLHLREKIARLVTQTTTQKV
binding: binds
